Test results from patent US12662465B2, “EGFR inhibitors” (Blueprint Medicines Corporation, priority 2021, dated 2026).
The match of structure and compound is tentative.

Amino acid sequences for entries named in this document (tags omitted). A change or cut given only in a name is not applied to a line headed by its entry. Residues count along the entry.
UniProt P00533, 25-1210 L858R limits assumed: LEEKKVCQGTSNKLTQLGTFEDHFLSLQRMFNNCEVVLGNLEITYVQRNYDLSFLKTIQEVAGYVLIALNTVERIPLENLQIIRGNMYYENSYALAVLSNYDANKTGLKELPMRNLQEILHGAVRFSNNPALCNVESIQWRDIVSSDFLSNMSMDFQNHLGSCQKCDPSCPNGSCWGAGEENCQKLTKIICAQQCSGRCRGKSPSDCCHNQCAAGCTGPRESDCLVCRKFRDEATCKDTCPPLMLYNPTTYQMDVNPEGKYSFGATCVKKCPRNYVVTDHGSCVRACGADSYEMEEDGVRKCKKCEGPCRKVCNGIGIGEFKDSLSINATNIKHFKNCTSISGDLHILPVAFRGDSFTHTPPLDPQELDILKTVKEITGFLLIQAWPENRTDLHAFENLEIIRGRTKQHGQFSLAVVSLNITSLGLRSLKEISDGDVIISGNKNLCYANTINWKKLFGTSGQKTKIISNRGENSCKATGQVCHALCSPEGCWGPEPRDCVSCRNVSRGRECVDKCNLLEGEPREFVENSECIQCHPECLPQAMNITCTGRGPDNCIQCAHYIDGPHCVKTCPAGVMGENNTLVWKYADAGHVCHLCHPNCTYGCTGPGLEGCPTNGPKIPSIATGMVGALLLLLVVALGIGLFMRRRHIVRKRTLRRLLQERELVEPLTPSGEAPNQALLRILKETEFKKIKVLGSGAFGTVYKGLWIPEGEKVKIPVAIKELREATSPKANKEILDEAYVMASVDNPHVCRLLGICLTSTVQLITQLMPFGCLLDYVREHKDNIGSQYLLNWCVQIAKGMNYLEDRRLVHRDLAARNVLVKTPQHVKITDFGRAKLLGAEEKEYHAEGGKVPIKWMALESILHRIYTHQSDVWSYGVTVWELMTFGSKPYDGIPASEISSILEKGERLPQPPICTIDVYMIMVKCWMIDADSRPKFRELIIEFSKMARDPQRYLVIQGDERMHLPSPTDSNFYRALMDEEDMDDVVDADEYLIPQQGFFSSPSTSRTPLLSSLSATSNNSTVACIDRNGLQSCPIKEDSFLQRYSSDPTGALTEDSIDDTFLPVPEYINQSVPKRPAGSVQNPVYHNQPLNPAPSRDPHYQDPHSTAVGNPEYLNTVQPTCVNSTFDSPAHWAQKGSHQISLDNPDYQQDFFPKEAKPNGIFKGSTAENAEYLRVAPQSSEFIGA

Tests used:
EGFR L858R = EGFR L858R (Homo sapiens, UniProt P00533, L858R); assay: Biochemical EGFR inhibition assay (Caliper mobility shift), EGFR L858R; conditions: read-out: Enz EGFR_L858R IC50; 1.0 mM ATP or ATP Km; room temperature (25° C.)
[1] = molecular target: intracellular phosphorylation of EGFR (Tyr1068) in PC-9 cells (Ex19Del) (Homo sapiens, UniProt P00533, DEL746-750); assay: PC-9 pEGFR AlphaLISA assay; assay type: cell-based; conditions: read-out: Ext pEGFR_PC-9 Ex19Del IC50, 4 hours compound incubation
EGFR (d746-750) = EGFR (d746-750) (Homo sapiens, UniProt P00533, DEL746-750); assay: Biochemical EGFR inhibition assay (Caliper mobility shift), EGFR (d746-750); conditions: read-out: Enz EGFR_Exon19-del746-750 IC50; 1.0 mM ATP or ATP Km; room temperature (25° C.)

IC50 (EGFR L858R): < 0.01 µM
IC50 [1]: 0.0101 to 0.05 µM
IC50 (EGFR (d746-750)): < 0.01 µM
SMILES: CC(Oc1cc(-c2cnn(C)c2)cc2ncnc(Nc3ccc4ncccc4c3F)c12)C1CCOCC1 (single isomer, unassigned)
